{
  "source": "patent US20200017752A1",
  "about": "“Use Of A Composition Containing At Least One Biodegradable Sugar-Amide-Compound In Combination With At Least One Sulfur-Based Synergist For Corrosion Inhibition Of A Metallic Equipment In Oilfield Applications” (Clariant International Ltd., priority 2016, published 2020)",
  "assay": "Corrosion test, rotating cylinder electrode (RCE), LPR",
  "conditions": "150° F., 2000 RPM, synthetic brine, 100% CO2, 12 ppm total inhibitor, vs 2 hr baseline",
  "from_the_text": "In order to evaluate the corrosion inhibition efficacy of the formulations, two different test methods were employed: rotating cylinder electrode (RCE) tests and high pressure, high temperature (HPHT) autoclave weight loss tests. For all testing, the following standard brine composition was used (as outlined in table 3):\nA gas composition of 100% CO2 was used throughout testing.\nThe metallurgy of the coupons tested was C1018 carbon steel for RCE testing and HPHT autoclave testing. Coupons were polished mechanically using 320 grit silicon-carbide (SiC) paper, 400 grit SiC paper, then 600 grit SIC paper and rinsed with water then acetone prior to testing.\nThe rotating cylinder electrode (RCE) tests were conducted in Pyrex™ glass reaction kettles that were heated to 150° F. The testing solution was comprised of 900 mL of brine. The electrode rotation rate was set at 2000 RPM, which generated a wall shear stress of 7.0 Pa. Linear polarization resistance (LPR) measurements were made with a Gamry electrochemical measurement system. The working electrode was made of a 1018 carbon steel (CS) cylinder with a surface area of 3.16 cm^2. A Hastelloy C276 electrode was used as a pseudo-reference, and a titanium rod was used as the counter electrode. […] The baseline corrosion rate corresponds to the blank corrosion value. […]",
  "note": "At least one compound was matched to its structure with a doubt left.",
  "data": [
    {"smiles": "NC(N)=S", "note": "[TU, Thiourea]", "values": [
      {"measurement": "Protection 2 hr after Cl dose", "result": 75.6, "unit": "%"},
      {"measurement": "Protection Final 3 hr", "result": 93.1, "unit": "%"}
    ]}
  ]
}
